{
  "source": "PubChem BioAssay AID248",
  "about": "(DTP/NCI, 2004)",
  "system": "L1210 leukemia ip in BDF1 mice, survival T/C",
  "assay": "NCI In Vivo Anticancer Drug Screen. Data for tumor model L1210 Leukemia (intraperitoneal) in B6D2F1 (BDF1) mice",
  "details": "higher T/C = longer survival",
  "key": {"[1]": {"details": "T/C endpoint: mean survival time, dose: 62.0 mg/kg/injection, schedule: Q01DX015 (ip), vehicle: carboxymethylcellulose (CMC)"}, "[2]": {"details": "T/C endpoint: mean survival time, dose: 200.0 mg/kg/injection, schedule: Q01DX005 (ip), vehicle: saline"}},
  "note": "The list does not hold the whole screen: it gathers tests that were run many times, whatever their T/C, doses with no T/C, and many T/C values between a quarter and a half above the control. Other doses and runs of a compound stand elsewhere. T/C is the treated group as % of the vehicle group. Some doses have a count of surviving animals in place of a T/C: the source holds a T/C of zero for them, seemingly a mark for toxic or unscored doses. Some doses without a T/C left all or most animals alive at the check, yet need not have been tolerated: survival well below the control is almost never listed, so the zero probably covers shortened survival too. Counts of survivors are from the toxicity check (mostly the fifth day) where no day follows; animals may have died later. Schedules are NCI's codes, read here as Q, the interval in days (D) or hours (H), X, the number of doses. For survival time, this PubChem deposit counts one and a half times the control or more as active, and values a quarter to a half above the control carry no call in these data; other NCI protocols may use other cut-offs. Some entries were tested several times; their values stand side by side, smallest first. Some T/C values carry the count of animals alive at the toxicity check (mostly the fifth day); without a count, all were alive then.",
  "data": [
    {"smiles": "Nc1nc(=S)c2ncn(C3CC(O)C(CO)O3)c2[nH]1", "note": "(stereo not drawn)", "values": [
      {"measurement": "T/C", "setting": "T/C endpoint: mean survival time, dose: 40.0 mg/kg/injection, schedule: Q01DX001 (ip), vehicle: saline", "result": "140 % of control"},
      {"measurement": "T/C", "setting": "T/C endpoint: mean survival time, dose: 40.0 mg/kg/injection, schedule: Q04DX003 (ip), vehicle: saline", "result": "144 % of control"},
      {"measurement": "T/C", "setting": "T/C endpoint: mean survival time, dose: 48.0 mg/kg/injection, schedule: Q01DX005 (oral), vehicle: saline", "result": "125 % of control"},
      {"measurement": "T/C", "setting": "T/C endpoint: mean survival time, dose: 50.0 mg/kg/injection, schedule: Q01DX005 (ip), vehicle: saline", "result": "126 % of control [5 of 6 alive]"},
      {"measurement": "T/C", "setting": "T/C endpoint: mean survival time, dose: 60.0 mg/kg/injection, schedule: Q08DX002 (oral), vehicle: saline", "result": "140 % of control"},
      {"measurement": "T/C", "setting": "[1]", "result": "141 % of control"},
      {"measurement": "survivor count", "setting": "[1]", "result": "6 of 6"},
      {"measurement": "T/C", "setting": "T/C endpoint: mean survival time, dose: 64.0 mg/kg/injection, schedule: Q01DX001 (ip), vehicle: saline with Tween-80", "result": "147 % of control"},
      {"measurement": "T/C", "setting": "T/C endpoint: mean survival time, dose: 80.0 mg/kg/injection, schedule: Q01DX001 (ip), vehicle: saline", "result": "141 % of control"},
      {"measurement": "T/C", "setting": "T/C endpoint: mean survival time, dose: 97.0 mg/kg/injection, schedule: Q01DX001 (ip), vehicle: saline with Tween-80", "result": "134 % of control"},
      {"measurement": "survivor count", "setting": "T/C endpoint: mean survival time, dose: 100.0 mg/kg/injection, schedule: Q01DX005 (ip), vehicle: saline", "result": "6 of 6"},
      {"measurement": "T/C", "setting": "T/C endpoint: mean survival time, dose: 120.0 mg/kg/injection, schedule: Q08DX002 (oral), vehicle: saline", "result": "131 % of control"},
      {"measurement": "survivor count", "setting": "T/C endpoint: mean survival time, dose: 125.0 mg/kg/injection, schedule: Q01DX015 (ip), vehicle: carboxymethylcellulose (CMC)", "result": "4 of 6"},
      {"measurement": "T/C", "setting": "[2]", "result": "134 % of control"},
      {"measurement": "survivor count", "setting": "[2]", "result": "2 of 6"},
      {"measurement": "T/C", "setting": "T/C endpoint: mean survival time, dose: 240.0 mg/kg/injection, schedule: Q08DX002 (oral), vehicle: saline", "result": "136 % of control"},
      {"measurement": "survivor count", "setting": "T/C endpoint: mean survival time, dose: 250.0 mg/kg/injection, schedule: Q01DX015 (ip), vehicle: carboxymethylcellulose (CMC)", "result": "2 of 6"},
      {"measurement": "T/C", "setting": "T/C endpoint: mean survival time, dose: 480.0 mg/kg/injection, schedule: Q08DX002 (oral), vehicle: saline", "result": "128 % of control"},
      {"measurement": "survivor count", "setting": "T/C endpoint: mean survival time, dose: 500.0 mg/kg/injection, schedule: Q01DX015 (ip), vehicle: carboxymethylcellulose (CMC)", "result": "0 of 6"},
      {"measurement": "T/C", "setting": "T/C endpoint: median survival time, dose: 0.12 mg/kg/injection, schedule: Q03HX024 (ip), vehicle: saline", "result": "127 % of control"},
      {"measurement": "T/C", "setting": "T/C endpoint: median survival time, dose: 0.13 mg/kg/injection, schedule: Q03HX024 (ip), vehicle: saline", "result": "127 % of control"},
      {"measurement": "T/C", "setting": "T/C endpoint: median survival time, dose: 0.25 mg/kg/injection, schedule: Q03HX024 (ip), vehicle: saline, evaluated on day 5", "result": "127 and 132 % of control"},
      {"measurement": "T/C", "setting": "T/C endpoint: median survival time, dose: 0.25 mg/kg/injection, schedule: Q03HX024 (ip), vehicle: saline, evaluated on day 30", "result": "127 % of control"},
      {"measurement": "T/C", "setting": "T/C endpoint: median survival time, dose: 0.25 mg/kg/injection, schedule: Q03HX024 (ip), vehicle: saline, evaluated on day 33", "result": "132 % of control"},
      {"measurement": "T/C", "setting": "T/C endpoint: median survival time, dose: 0.5 mg/kg/injection, schedule: Q03HX024 (ip), vehicle: saline, evaluated on day 5", "result": "137 and 149 % of control"},
      {"measurement": "T/C", "setting": "T/C endpoint: median survival time, dose: 0.5 mg/kg/injection, schedule: Q03HX024 (ip), vehicle: saline, evaluated on day 30", "result": "137 % of control [7 of 8 alive]"},
      {"measurement": "T/C", "setting": "T/C endpoint: median survival time, dose: 0.5 mg/kg/injection, schedule: Q03HX024 (ip), vehicle: saline, evaluated on day 33", "result": "149 % of control"},
      {"measurement": "T/C", "setting": "T/C endpoint: median survival time, dose: 1.0 mg/kg/injection, schedule: Q03HX024 (ip), vehicle: saline, evaluated on day 5", "result": "159 and 165 % of control"},
      {"measurement": "T/C", "setting": "T/C endpoint: median survival time, dose: 1.0 mg/kg/injection, schedule: Q03HX024 (ip), vehicle: saline, evaluated on day 30", "result": "159 % of control"},
      {"measurement": "T/C", "setting": "T/C endpoint: median survival time, dose: 1.0 mg/kg/injection, schedule: Q03HX024 (ip), vehicle: saline, evaluated on day 33", "result": "165 % of control"},
      {"measurement": "T/C", "setting": "T/C endpoint: median survival time, dose: 2.0 mg/kg/injection, schedule: Q03HX024 (ip), vehicle: saline, evaluated on day 5", "result": "104, 108, 146, 183 % of control"},
      {"measurement": "T/C", "setting": "T/C endpoint: median survival time, dose: 2.0 mg/kg/injection, schedule: Q03HX024 (ip), vehicle: saline, evaluated on day 30", "result": "108 and 183 % of control"},
      {"measurement": "T/C", "setting": "T/C endpoint: median survival time, dose: 2.0 mg/kg/injection, schedule: Q03HX024 (ip), vehicle: saline, evaluated on day 33", "result": "104 and 146 % of control"},
      {"measurement": "T/C", "setting": "T/C endpoint: median survival time, dose: 4.0 mg/kg/injection, schedule: Q03HX024 (ip), vehicle: saline, evaluated on day 5", "result": "82, 102, 115, 127 % of control"},
      {"measurement": "T/C", "setting": "T/C endpoint: median survival time, dose: 4.0 mg/kg/injection, schedule: Q03HX024 (ip), vehicle: saline, evaluated on day 30", "result": "115 and 127 % of control"},
      {"measurement": "T/C", "setting": "T/C endpoint: median survival time, dose: 4.0 mg/kg/injection, schedule: Q03HX024 (ip), vehicle: saline, evaluated on day 33", "result": "102 % of control"},
      {"measurement": "survivor count", "setting": "T/C endpoint: median survival time, dose: 4.0 mg/kg/injection, schedule: Q03HX024 (ip), vehicle: saline", "result": "8 of 8"},
      {"measurement": "T/C", "setting": "T/C endpoint: median survival time, dose: 8.0 mg/kg/injection, schedule: Q03HX024 (ip), vehicle: saline, evaluated on day 5", "result": "123 and 124 % of control"},
      {"measurement": "T/C", "setting": "T/C endpoint: median survival time, dose: 8.0 mg/kg/injection, schedule: Q03HX024 (ip), vehicle: saline, evaluated on day 30", "result": "124 % of control"},
      {"measurement": "T/C", "setting": "T/C endpoint: median survival time, dose: 8.0 mg/kg/injection, schedule: Q03HX024 (ip), vehicle: saline, evaluated on day 33", "result": "123 % of control"},
      {"measurement": "T/C", "setting": "T/C endpoint: median survival time, dose: 16.0 mg/kg/injection, schedule: Q03HX024 (ip), vehicle: saline, evaluated on day 5", "result": "142 and 160 % of control"},
      {"measurement": "T/C", "setting": "T/C endpoint: median survival time, dose: 16.0 mg/kg/injection, schedule: Q03HX024 (ip), vehicle: saline, evaluated on day 30", "result": "160 % of control"},
      {"measurement": "T/C", "setting": "T/C endpoint: median survival time, dose: 16.0 mg/kg/injection, schedule: Q03HX024 (ip), vehicle: saline, evaluated on day 33", "result": "142 % of control"}
    ]}
  ]
}
